# The list shows a part of the results.
# Chains of the proteins cited; added tags and fusions are not shown. Lines headed by an entry give the natural chain unless they say otherwise; changes in a name come on top.
# UniProt Q9Y276: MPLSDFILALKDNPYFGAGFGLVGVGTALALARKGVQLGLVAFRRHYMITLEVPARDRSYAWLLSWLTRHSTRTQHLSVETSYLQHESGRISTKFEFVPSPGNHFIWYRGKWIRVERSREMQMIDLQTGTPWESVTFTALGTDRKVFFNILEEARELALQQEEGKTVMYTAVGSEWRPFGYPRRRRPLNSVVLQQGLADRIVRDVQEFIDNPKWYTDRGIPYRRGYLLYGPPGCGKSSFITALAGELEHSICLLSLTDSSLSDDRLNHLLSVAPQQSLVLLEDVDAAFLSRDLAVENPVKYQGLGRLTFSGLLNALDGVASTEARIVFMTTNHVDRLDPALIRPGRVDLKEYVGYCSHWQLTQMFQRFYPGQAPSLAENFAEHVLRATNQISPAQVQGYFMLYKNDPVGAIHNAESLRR
# UniProt P48047: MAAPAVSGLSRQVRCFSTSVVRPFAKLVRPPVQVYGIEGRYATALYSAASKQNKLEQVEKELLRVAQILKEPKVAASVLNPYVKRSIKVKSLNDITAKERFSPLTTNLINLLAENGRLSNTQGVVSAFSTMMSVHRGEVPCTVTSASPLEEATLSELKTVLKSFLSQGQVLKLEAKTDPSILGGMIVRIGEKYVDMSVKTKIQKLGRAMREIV
# UniProt Q96BM9: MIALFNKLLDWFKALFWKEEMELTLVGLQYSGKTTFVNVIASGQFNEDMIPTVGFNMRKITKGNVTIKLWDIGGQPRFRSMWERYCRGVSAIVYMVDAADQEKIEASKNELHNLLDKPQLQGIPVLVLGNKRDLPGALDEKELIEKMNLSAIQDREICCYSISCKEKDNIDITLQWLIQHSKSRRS
# UniProt Q8TF62: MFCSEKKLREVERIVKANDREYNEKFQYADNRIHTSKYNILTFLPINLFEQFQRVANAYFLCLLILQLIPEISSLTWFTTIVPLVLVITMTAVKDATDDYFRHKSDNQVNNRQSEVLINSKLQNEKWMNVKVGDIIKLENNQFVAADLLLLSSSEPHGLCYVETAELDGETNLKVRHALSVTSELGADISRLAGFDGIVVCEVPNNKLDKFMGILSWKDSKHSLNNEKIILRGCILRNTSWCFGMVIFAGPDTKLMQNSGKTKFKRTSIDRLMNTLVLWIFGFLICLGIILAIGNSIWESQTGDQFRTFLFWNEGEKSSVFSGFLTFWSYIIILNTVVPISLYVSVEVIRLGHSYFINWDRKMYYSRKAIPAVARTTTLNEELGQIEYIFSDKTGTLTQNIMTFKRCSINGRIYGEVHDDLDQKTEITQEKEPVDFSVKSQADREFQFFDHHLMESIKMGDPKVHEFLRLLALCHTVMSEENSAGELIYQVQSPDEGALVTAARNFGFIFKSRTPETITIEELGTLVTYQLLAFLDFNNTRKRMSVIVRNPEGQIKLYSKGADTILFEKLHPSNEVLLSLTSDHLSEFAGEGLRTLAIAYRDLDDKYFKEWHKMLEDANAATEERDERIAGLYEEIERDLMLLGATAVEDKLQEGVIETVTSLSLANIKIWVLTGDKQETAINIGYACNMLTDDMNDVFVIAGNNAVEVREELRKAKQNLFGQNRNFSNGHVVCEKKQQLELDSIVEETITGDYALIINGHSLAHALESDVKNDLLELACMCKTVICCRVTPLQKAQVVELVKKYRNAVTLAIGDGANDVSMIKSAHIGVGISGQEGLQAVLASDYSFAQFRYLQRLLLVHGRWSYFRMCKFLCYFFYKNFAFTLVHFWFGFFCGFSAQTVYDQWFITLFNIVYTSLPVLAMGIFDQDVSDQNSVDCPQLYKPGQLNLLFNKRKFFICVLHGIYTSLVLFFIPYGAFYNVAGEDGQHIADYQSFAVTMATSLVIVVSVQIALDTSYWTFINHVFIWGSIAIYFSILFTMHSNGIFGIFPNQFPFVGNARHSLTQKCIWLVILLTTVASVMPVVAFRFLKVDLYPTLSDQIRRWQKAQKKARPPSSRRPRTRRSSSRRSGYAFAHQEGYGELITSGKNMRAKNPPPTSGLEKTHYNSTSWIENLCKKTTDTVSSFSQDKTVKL
# UniProt Q9H0F7: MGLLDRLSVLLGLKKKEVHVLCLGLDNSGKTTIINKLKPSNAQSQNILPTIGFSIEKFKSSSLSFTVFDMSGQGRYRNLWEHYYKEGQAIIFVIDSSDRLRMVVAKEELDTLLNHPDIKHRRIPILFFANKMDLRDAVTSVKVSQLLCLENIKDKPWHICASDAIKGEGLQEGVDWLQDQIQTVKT
# UniProt P98194: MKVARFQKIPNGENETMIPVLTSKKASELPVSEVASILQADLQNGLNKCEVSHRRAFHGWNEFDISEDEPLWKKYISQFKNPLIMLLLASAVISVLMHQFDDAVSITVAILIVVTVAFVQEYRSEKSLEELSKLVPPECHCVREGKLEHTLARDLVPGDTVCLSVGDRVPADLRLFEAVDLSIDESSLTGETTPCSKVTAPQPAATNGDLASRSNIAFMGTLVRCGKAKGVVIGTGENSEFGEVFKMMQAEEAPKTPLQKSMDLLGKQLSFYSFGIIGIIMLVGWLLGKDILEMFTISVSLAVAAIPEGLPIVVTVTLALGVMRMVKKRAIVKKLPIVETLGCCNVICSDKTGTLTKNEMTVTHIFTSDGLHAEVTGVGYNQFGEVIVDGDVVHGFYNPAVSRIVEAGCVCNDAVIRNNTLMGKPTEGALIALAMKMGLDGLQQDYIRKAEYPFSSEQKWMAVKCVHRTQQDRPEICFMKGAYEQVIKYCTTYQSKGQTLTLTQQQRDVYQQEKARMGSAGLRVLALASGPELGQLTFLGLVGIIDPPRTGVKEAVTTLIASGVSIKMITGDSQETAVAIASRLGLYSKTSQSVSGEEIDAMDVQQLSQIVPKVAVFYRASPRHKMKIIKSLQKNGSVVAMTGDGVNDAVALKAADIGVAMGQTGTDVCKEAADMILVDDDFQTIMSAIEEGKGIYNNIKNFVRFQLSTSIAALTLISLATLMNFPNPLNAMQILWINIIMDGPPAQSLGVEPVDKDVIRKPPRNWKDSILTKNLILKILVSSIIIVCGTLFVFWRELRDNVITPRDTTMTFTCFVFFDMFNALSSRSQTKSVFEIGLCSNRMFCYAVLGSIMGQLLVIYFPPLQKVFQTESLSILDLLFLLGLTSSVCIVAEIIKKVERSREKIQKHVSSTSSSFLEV
# UniProt P41223: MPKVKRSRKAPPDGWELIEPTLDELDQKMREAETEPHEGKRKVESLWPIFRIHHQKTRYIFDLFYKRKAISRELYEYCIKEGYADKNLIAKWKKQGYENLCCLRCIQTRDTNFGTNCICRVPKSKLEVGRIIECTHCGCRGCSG
# UniProt O43861: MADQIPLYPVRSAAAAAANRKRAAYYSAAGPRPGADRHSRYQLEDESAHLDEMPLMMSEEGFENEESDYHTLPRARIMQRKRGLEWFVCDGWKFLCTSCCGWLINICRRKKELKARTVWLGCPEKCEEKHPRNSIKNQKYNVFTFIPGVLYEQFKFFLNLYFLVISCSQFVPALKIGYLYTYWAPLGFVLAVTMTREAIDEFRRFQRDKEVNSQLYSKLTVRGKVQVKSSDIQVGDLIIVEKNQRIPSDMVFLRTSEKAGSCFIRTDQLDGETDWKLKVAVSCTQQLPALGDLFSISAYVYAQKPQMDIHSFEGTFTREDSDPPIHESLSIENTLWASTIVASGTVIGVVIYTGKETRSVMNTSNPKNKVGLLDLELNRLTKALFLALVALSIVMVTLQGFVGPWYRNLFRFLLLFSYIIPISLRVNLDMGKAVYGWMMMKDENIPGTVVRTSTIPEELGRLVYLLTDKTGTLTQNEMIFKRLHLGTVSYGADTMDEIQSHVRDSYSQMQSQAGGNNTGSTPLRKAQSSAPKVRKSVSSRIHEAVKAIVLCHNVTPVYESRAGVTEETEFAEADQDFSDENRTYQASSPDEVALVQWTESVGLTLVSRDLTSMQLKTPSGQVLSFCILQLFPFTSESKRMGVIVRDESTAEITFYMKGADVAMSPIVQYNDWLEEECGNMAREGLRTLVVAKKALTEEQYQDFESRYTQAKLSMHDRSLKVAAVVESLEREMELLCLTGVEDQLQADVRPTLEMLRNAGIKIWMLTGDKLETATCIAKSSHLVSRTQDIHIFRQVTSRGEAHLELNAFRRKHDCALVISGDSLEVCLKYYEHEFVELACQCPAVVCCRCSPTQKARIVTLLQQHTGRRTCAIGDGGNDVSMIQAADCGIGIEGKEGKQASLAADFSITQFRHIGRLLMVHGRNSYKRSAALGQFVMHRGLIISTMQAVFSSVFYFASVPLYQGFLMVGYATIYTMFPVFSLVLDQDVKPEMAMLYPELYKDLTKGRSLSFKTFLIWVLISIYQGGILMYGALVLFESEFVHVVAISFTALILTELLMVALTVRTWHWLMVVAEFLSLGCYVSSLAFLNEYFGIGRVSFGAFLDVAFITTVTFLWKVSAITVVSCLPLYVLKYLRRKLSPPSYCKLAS
# Compound: COc1ccc(Cn2ccc3ccc(C(=O)NO)cc32)cc1
# Experiment: dose-dependent thermal stabilisation call (2D-TPP, DLPTP, 10% FDR) (binary (1 = stabilised)); higher = stabilised by the compound
# Settings: system: HL-60 intact cells; concentration range 0.04-10 µM
row,Target,dose-dependent thermal stabilisation call
1,BCS1L (UniProt Q9Y276),inactive: 0
2,ATP5O (UniProt P48047),inactive: 0
3,ARL8A (UniProt Q96BM9),inactive: 0
4,C12ORF73 (UniProt Q69YU5),inactive: 0
5,ATP8B4 (UniProt Q8TF62),inactive: 0
6,ARPC3 (UniProt O15145),inactive: 0
7,ARL6 (UniProt Q9H0F7),inactive: 0
8,ATP2C1 (UniProt P98194),inactive: 0
9,ARPC5 (UniProt O15511),inactive: 0
10,BUD31 (UniProt P41223),inactive: 0
11,ATP9B (UniProt O43861),inactive: 0

# Quoted at random: 2 records from the list, in no set order.
row,Target,dose-dependent thermal stabilisation call
9,ARPC5 (UniProt O15511),inactive: 0
4,C12ORF73 (UniProt Q69YU5),inactive: 0
